PubChem BioAssay AID1224830 – NIAID | 2016

- Purpose: 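Regulators of TLR4 signalling towards TNF-alpha in macrophage-like cells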 (primary screen)
- Cell system: human THP-1 monocytic leukaemia cells, TNF dual-luciferase reporter clone, PMA-differentiated to macrophage-like cells
- Reagent: siRNA pool against human genes, 50 nM
- Duration: LPS for 4 h, given about 3 days after siRNA transfection
- Treatment: bacterial LPS (TLR4 ligand), 10 ng/ml
- Measured: 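Ratio of firefly to renilla light, scaled to the plate median and expressed as a robust z-score per replicate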
- Scale: TNF reporter robust z-score: higher = stronger TNF reporter response to LPS
- Rule for the call: 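a well is active when its z-score exceeds 2.8 or falls below -1.5; control wells carry no call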
The whole screen tested about 18,000 reagents; this is an unselected part. About 2,900 of all reagents (16%) count as active. 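Calls are made per well; low scores hint the gene aids the LPS response, high scores that it dampens it.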 Repeated entries: four replicate wells of each siRNA pool.

| TNF reporter robust z-score | Outcome | target gene |
| --- | --- | --- |
| 0.13 | inactive | SLC22A8 |
| 0.59 | inactive | SLC22A8 |
| 1.49 | inactive | SLC22A8 |
| 0.77 | inactive | SLC22A8 |
| -0.37 | inactive | CENPS |
| -1.39 | inactive | CENPS |
| -0.5 | inactive | CENPS |
| 0.55 | inactive | CENPS |
| -0.52 | inactive | NWD1 |
| -0.17 | inactive | NWD1 |
| -1.68 | active | NWD1 |
| -1.24 | inactive | NWD1 |
| -0.43 | inactive | EIF2D |
| -0.12 | inactive | EIF2D |
| -0.37 | inactive | EIF2D |
| 0.79 | inactive | SLC13A5 |
| 0.58 | inactive | SLC13A5 |
| 0.87 | inactive | SLC13A5 |
| 0.47 | inactive | SLC13A5 |
| -0.58 | inactive | TOR2A |
| -0.96 | inactive | TOR2A |
| -0.76 | inactive | TOR2A |
| 0.3 | inactive | TOR2A |
| -0.12 | inactive | PTPRF |
| -0.28 | inactive | PTPRF |
| -0.92 | inactive | PTPRF |
| -0.75 | inactive | PTPRF |
| 0.49 | inactive | SEMA4A |
| 0.69 | inactive | SEMA4A |
| 1.42 | inactive | SEMA4A |
| 0.28 | inactive | SEMA4A |
| -0.57 | inactive | HILPDA |
| -0.55 | inactive | HILPDA |
| 0.25 | inactive | HILPDA |
| 0.21 | inactive | HILPDA |
| 0.62 | inactive | SKA1 |
| 2.21 | inactive | SKA1 |
| 0.82 | inactive | SKA1 |
| 0.9 | inactive | SKA1 |
| -1.15 | inactive | ABCB6 |
| -0.38 | inactive | ABCB6 |
| -0.89 | inactive | ABCB6 |
| -0.27 | inactive | ABCB6 |
| 0.82 | inactive | POMC |
| 0.42 | inactive | POMC |
| 0.83 | inactive | POMC |
| 2.18 | inactive | POMC |
| – | inactive | RCBTB1 |
| -0.25 | inactive | RCBTB1 |
| -0.23 | inactive | RCBTB1 |
| -0.2 | inactive | RCBTB1 |
| -0.07 | inactive | RCBTB1 |
| -0.23 | inactive | TET2 |
| 2.17 | inactive | TET2 |
| 2.3 | inactive | TET2 |
| 3.31 | active | TET2 |
| -0.85 | inactive | HAUS1 |
| 0.05 | inactive | HAUS1 |
| -0.63 | inactive | HAUS1 |
| 1.02 | inactive | HAUS1 |
| -1.96 | active | SRD5A2 |
| -2.12 | active | SRD5A2 |
| -2.19 | active | SRD5A2 |
| -1.68 | active | SRD5A2 |
| -0.22 | inactive | SNORC |
| 0.77 | inactive | SNORC |
| 1.28 | inactive | SNORC |
| 1.89 | inactive | SNORC |
| 1.65 | inactive | ATP5F1A |
| 1.49 | inactive | ATP5F1A |
| 1.06 | inactive | ATP5F1A |
| 0.05 | inactive | ATP5F1A |
| -1.2 | inactive | MATN2 |
| -0.39 | inactive | MATN2 |
| -0.11 | inactive | MATN2 |

Entries listed so far marked active, once more:
| TNF reporter robust z-score | Outcome | target gene |
| --- | --- | --- |
| -1.68 | active | NWD1 |
| 3.31 | active | TET2 |
| -1.96 | active | SRD5A2 |
| -2.12 | active | SRD5A2 |
| -2.19 | active | SRD5A2 |
| -1.68 | active | SRD5A2 |
